# Laboratory results taken from PubChem BioAssay AID1508600 (Functional Genomics Laboratory (NCATS/FGL), 2020).
# In all, about 53,000 sequences went through this assay and about 3,700 (7%) were called active.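 The calls were made as follows: active = gene knockdowns whose robust z-score for IL-1 alpha signal is at least 2 or at most -2, so actives lie on both sides; inactive = the rest.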 This is one part of the list.
# Experiment: Components of the Cytosolic LPS Sensing Pathway: Gene Identification via Genome-wide siRNA Screen;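 also: robust z of the log signal after scaling to non-targeting control siRNA wells of the plate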
# Settings: RAW264.7 macrophages, IL-1a HTRF, actives lie on both sides, screened at 100 nM (by protocol), cells primed 5 h with Pam3CSK4 first
# In short: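 RAW264.7; siRNA 100 nM final, RNAiMAX, 48h 37 degrees C; Pam3CSK4 5 h; LipidA + TransIT-TKO 24 h; IL-1a HTRF; CellTiter-Glo viability; robust z vs negative-control median.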
row,Sequence,z-score
1,GCCGAGCUCAAAACACAACTT against Txnl4a,inactive: 0.948
2,GGAGUUUGAACGUGAGCGGTT against Ndufb7,inactive: 0.583
3,GUCAUUUUGCUAGUGGUGATT against Olfr142,inactive: 0.344
4,GGCUAUUGACUUCAUAGACTT against Dusp1,inactive: -0.0378
5,CCUUAUAGCAUAAGCUUUATT against Olfr768,active: 2.04
6,GGACAGCAACUAACAUUCATT against Ccdc84,inactive: 0.869
7,GCCAUUUCCUUCAGUAGUATT against Olfr1355,inactive: 0.922
8,GCAUAUGCGAACAGUAAAATT against Rab28,inactive: -0.182
9,CGCAGAUAAUAUCUUUGUCTT against Olfr461,inactive: 0.389
10,GGUGUAUUGAGCUAAACAUTT against Rnft2,inactive: -0.344
11,GGGCAUCAUGAAACUAUGUTT against Kbtbd4,active: -2.59
12,CCAGCGACUACAGCAAAUATT against Gcg,inactive: 0.968
13,GGACGGCUCUAAAGAUGAGTT against Spin1,inactive: -1.41
14,GCUUUUAUACACUUCCCUCTT against Nmt1,inactive: 0.834
15,CCUACCCUACUAAUGAAUUTT against Cldn4,inactive: 0.0496
16,GCCCAUCAGUGAGGUGCUATT against Adh7,inactive: -0.451
17,GCAAAGACAAUCUUUAAGGTT against Pde4d,inactive: -0.747
18,GCUGCCUACACCUUUUACGTT against Abhd8,inactive: 0.0117
19,GCAUUAAAAACCCUUUUUGTT against B230354K17Rik,inactive: 1.68
20,GCCUUGCUGCCAGAACCUATT against Sumf2,inactive: -0.171
21,GCAUAAGUCCCUCUUAGUGTT against Slc6a7,inactive: 0.177
22,CGAACAGUCUGUAUGGCGATT against Jak1,inactive: 1.07
23,GGAAGACAGGGACAAUACCTT against Car15,active: -2.36

row,Sequence,z-score
1,CGAGUGUUGAAUAUUGUGATT against Gpr65,inactive: 0.158
2,GCCAGCUACUCUCUUGAGATT against Olfr419,inactive: -1.03
3,GCCCACAUCUGAUCUUAAATT against Tor1aip2,inactive: -1.59
4,AUCUCUCGGUGGUGGACUGTT against Olfr1474,inactive: 0.583
5,CUGCUUUUGAGUCUGGCGATT against Irgc1,inactive: -0.115
6,GCUAUUGGACAGCUUCUACTT against Olfr1313,inactive: -0.0581
7,GGAUAGCGUGAAAUGAUUATT against Cyb5r1,inactive: 1.02
8,GGGACUGAAUUUAGUUUCATT against Prx,inactive: -0.206
9,CGAUAAGAAAAGCUUGUUGTT against Nub1,inactive: -0.0304
10,GGGAAAGGAAAGAAGAAGATT against Srp19,inactive: 0.257
11,GGAUGUCUCAACAUUCUUCTT against Vmn1r50,inactive: 0.313
12,CGAUCCAAUCAAAACUAGUTT against Ddx41,inactive: -0.944
13,GAAAAAUCAUGAAGCCAUATT against Olfr203,inactive: -0.0109
14,GGAUUACAACAACUAUGGCTT against Pla2g1b,inactive: 0.288
15,GGGCUGAUCUGGAUCAAUATT against Irf1,inactive: 0.129
16,GGAGAUAAGAGAUCACAUCTT against Oxnad1,inactive: 0.122
17,GGGUUUAUUACAAUCAAACTT against Liph,inactive: 1.49
18,GGCCAGAACUGUUCCAAUUTT against Cilp,inactive: 1.15
19,GGUUGGAUUAUUAGGAAUUTT against Dnah5,inactive: 0.0387
20,CCCUGAUGUUCUGUUUGAATT against Uba5,inactive: 0.687
21,GCUGGAACUUAGUGUUCAGTT against Kat6b,inactive: 1.45
22,GGUUCAACUCUGUGGUCACTT against C1qc,inactive: 0.247
23,GGGAUUCAGACAUGUGCUGTT against 4930503E14Rik,inactive: -0.658

# Fetched one by one from above:
row,Sequence,z-score
21,GCUGGAACUUAGUGUUCAGTT against Kat6b,inactive: 1.45
10,GGGAAAGGAAAGAAGAAGATT against Srp19,inactive: 0.257
22,GGUUCAACUCUGUGGUCACTT against C1qc,inactive: 0.247

# More entries:

row,Sequence,z-score
1,CCAGAUGUGAAACAUGACATT against Upk3a,inactive: -1.57
2,CCCACUCUUUGUGUACUGATT against Olfr262,active: -2.1
3,CCAGCACUCGAAAAAGAUGTT against Pdzd8,inactive: 0.0208
4,GGAAACUGGACCAGACUAUTT against Smarcd1,inactive: -0.0183
5,GGGUUGCCACAUGUUAUAUTT against Smad2,inactive: -0.0821
6,GCUGAACAGGUUACGAAAATT against Ints14,inactive: 1.69
7,GGAAAAGUGUACGUGAUCATT against Prkce,inactive: -1.75
8,GGACAAGAUGCGAAAAGCATT against Tbrg4,inactive: -0.861
9,CCUGUCGACGGAAUUUUAGTT against Zfp287,inactive: -0.349
10,GGAUGAAGACAUGCUCACATT against Pcdhb6,inactive: -0.551
11,GGGAAUGAAAUGUUCUUCGTT against Ttl,inactive: -0.121
12,CGCAAGAGAGUGGAUUUCUTT against Cpb1,inactive: 1.2
13,GCGUACGUGAUCUCAGUCUTT against Ttll1,inactive: -0.833
14,GGUCUAAGGCAUGGGUCAATT against Odf3b,inactive: -1.18
15,GGAACAGAUAACAUUAUGGTT against Cpeb3,active: 2.79
16,GGCUUUAUAUGAAACUCCUTT against Acrv1,active: -2.01
17,GCCACAUUCUUCUCAACCUTT against Tas2r106,active: -2.14
18,GGGCUUUGCUGUCUAUGCATT against Dmwd,inactive: -0.617
19,GCCGUACAGUAAGCACUACTT against Smyd2,inactive: 0.796
20,GGUGCUCAAUAAAUGUAAATT against Cd151,inactive: -1.26
21,CCAAAAAUGCAACCCUCACTT against Serinc2,inactive: -0.308
22,GCAUAAAGCACCCGGAGAGTT against Zbtb32,inactive: -1.53
